From the supplement of paper PMC10849652
The list shows a part of the results.

Protein sequences, listed by entry. Tags and fused reporters are not part of them. Lines headed by an entry give the natural chain unless they say otherwise; changes in a name come on top.
UniProt P49760, whole entry, looked up: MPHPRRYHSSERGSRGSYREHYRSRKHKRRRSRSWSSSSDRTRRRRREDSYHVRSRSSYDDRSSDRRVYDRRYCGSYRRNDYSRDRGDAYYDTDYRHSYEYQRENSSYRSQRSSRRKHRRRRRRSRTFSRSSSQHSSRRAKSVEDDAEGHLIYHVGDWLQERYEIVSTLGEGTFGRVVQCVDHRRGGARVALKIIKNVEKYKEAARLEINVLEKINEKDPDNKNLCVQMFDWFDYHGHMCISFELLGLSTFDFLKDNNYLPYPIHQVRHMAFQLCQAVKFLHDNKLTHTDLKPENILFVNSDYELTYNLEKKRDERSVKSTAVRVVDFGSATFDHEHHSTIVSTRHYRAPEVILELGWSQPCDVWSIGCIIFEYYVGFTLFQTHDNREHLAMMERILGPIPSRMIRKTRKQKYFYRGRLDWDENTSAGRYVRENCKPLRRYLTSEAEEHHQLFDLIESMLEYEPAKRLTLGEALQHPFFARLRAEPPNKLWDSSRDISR
UniProt O94985: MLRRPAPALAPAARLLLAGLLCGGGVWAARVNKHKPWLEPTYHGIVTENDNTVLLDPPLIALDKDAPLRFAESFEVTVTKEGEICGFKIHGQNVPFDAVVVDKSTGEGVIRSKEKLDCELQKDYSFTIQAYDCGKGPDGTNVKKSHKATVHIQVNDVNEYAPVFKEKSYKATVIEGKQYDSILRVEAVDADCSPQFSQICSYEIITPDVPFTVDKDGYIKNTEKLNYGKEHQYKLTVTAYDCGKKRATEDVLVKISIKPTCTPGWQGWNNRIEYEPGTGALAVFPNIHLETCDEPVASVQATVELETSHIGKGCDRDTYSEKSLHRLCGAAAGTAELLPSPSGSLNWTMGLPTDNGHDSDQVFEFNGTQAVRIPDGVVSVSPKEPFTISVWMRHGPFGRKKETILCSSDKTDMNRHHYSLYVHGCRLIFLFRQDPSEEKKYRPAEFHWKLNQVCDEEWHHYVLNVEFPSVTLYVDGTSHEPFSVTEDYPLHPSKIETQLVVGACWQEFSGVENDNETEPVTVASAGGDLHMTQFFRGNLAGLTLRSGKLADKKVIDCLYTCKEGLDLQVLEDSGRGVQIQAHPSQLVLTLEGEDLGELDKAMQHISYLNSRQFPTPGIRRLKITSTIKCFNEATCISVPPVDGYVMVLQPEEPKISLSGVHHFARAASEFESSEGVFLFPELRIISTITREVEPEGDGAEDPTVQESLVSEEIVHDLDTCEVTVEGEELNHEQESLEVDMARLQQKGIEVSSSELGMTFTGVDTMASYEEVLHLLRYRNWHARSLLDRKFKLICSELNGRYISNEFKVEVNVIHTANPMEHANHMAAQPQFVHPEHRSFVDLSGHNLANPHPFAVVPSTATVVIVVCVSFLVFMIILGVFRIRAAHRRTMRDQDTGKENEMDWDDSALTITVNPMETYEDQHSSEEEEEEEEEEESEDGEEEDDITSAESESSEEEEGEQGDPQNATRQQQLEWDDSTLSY
UniProt Q8WUD6: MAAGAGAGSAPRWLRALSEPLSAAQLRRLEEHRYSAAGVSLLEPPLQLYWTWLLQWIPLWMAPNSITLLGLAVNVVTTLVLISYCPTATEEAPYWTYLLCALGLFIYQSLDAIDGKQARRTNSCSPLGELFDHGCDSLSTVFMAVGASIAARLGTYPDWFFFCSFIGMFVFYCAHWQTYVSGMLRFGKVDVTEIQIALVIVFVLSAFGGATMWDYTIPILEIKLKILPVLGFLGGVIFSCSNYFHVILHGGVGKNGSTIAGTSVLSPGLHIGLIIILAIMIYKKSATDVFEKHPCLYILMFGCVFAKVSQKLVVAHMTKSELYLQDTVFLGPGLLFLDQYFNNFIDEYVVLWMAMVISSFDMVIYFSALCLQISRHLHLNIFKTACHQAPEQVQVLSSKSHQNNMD
UniProt Q9BQT9: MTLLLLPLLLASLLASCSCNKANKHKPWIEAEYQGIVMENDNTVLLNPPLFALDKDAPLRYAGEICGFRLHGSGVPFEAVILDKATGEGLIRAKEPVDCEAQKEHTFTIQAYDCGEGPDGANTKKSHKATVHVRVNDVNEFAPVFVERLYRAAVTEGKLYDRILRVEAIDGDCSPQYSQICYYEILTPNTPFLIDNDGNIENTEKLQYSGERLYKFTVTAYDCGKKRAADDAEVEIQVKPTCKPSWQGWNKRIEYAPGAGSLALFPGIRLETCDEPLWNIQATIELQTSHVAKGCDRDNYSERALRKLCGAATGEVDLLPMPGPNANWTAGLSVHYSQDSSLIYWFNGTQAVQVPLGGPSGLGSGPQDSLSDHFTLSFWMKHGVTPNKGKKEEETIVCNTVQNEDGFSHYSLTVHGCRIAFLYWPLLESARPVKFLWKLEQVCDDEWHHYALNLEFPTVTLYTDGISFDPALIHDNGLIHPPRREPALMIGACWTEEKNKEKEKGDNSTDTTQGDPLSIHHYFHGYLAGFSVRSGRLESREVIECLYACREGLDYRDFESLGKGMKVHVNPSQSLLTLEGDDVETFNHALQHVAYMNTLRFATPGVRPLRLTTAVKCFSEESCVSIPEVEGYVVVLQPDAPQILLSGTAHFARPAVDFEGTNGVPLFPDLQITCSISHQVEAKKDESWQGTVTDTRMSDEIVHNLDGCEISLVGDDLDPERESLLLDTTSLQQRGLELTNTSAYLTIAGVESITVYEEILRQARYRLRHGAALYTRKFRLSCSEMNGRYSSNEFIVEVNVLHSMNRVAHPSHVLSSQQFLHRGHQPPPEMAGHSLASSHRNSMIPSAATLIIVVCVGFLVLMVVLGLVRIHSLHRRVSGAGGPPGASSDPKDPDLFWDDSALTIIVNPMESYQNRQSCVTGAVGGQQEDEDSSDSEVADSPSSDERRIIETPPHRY
UniProt Q9UDT6: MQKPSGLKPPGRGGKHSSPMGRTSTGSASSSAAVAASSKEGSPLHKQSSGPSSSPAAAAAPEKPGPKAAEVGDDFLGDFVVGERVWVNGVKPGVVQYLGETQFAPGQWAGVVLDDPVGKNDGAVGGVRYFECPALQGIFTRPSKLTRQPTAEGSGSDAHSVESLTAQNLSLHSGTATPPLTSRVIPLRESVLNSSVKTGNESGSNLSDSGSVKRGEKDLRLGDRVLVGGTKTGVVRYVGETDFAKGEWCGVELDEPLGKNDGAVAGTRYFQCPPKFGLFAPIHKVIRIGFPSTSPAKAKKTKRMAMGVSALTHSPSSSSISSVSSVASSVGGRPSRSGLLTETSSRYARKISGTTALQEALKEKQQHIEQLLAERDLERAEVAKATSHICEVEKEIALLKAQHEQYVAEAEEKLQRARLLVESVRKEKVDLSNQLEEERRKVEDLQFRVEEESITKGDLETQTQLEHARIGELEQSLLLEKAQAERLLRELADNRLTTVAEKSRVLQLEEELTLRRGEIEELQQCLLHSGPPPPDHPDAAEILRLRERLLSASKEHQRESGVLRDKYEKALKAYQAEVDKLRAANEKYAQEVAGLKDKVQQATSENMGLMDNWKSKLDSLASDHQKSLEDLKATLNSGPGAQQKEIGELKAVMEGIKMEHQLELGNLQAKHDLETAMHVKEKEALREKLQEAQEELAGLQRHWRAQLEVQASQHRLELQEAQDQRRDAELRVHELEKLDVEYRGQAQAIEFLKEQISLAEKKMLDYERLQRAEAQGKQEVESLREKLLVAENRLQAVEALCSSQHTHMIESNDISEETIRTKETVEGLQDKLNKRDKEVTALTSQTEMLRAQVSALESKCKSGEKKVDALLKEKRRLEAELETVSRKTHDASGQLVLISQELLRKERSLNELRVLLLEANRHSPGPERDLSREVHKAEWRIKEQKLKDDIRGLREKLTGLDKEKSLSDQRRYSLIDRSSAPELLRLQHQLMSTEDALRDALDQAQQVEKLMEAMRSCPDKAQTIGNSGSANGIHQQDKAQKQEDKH

What was measured:
Experiment in all cases: log2 fold change, soluble protein after heating vs DMSO (PISA); higher = thermal stabilisation; K562 lysate, 10 uM; active = over 0.2 and 3.5 SD of the protein, either way, in both replicates (recomputed)
[1] = compound: Cc1sc2c(c1C)C(c1ccc(Cl)cc1)=N[C@@H](CC(=O)OC(C)(C)C)c1nnc(C)n1-2
In short: (§1)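 Soluble protein was defined as the supernatant remaining after 21,000xg for 90 min, following pooling of heated aliquots and adjustment to 0.5% NP-40 at 4°C. Before that, crude K562 extract at 1 mg/mL protein in PBS pH 7.4 with 1 mM MgCl2 was treated with 10 μM compound for 30 min and heated for 3 min across 48°C-58°C. Quantification used TMTpro 16plex LC-MS/MS with channel sums equalised, and values are log-two fold changes in thermal stability relative to solvent controls from duplicates.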

[2] = compound: c1ccc([C@@H]2C[C@H]2NC2CCNCC2)cc1
In short: as §1

[3] = compound: C1=CC=C(C=C1)[C@H](COC2=CC3=C(C=C2)NC(=O)N3)NC(=O)C4=CC=CN(C4=O)CC5=CC(=C(C=C5)F)F
In short: as §1

[4] = compound: CC1=C(SC2=C1C(=N[C@H](C3=NN=C(N32)C)CC(=O)N)C4=CC=C(C=C4)Cl)C
In short: as §1

[5] = compound: CC1=C2C(=CC=C1)N=C(N(C2=O)C3=CC=CC=C3C)CN4C=NC5=C(N=CN=C54)N
In short: as §1

CLK2 (UniProt P49760)
log2 fold change [1]: inactive: 0.108

CLSTN1 (UniProt O94985)
log2 fold change [2]: inactive: -0.297

CHPT1 (UniProt Q8WUD6)
log2 fold change [3]: inactive: -0.308
log2 fold change [4]: inactive: -0.031
log2 fold change [2]: inactive: 0.089

CLSTN3 isoform 2 (UniProt Q9BQT9)
log2 fold change [1]: inactive: -0.07

CLIP1, A0A3B3ITA2
log2 fold change [5]: inactive: 0.035
log2 fold change [2]: inactive: -0.123

CLIP2 (UniProt Q9UDT6)
log2 fold change [3]: inactive: 0.062
log2 fold change [4]: inactive: 0.18
log2 fold change [1]: inactive: 0.128
log2 fold change [2]: inactive: -0.139
